## Percent effect of library compounds

Sequences of proteins named here, by UniProt entry; tags and fusion partners are left off. Residues count along the entry.
UniProt P9WPC5, whole entry: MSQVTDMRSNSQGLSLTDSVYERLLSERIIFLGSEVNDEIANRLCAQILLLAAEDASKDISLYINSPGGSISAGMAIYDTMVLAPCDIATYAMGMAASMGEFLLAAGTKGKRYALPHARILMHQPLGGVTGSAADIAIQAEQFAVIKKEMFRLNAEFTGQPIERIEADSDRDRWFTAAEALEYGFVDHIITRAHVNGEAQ
UniProt P9WPC3, whole entry partner: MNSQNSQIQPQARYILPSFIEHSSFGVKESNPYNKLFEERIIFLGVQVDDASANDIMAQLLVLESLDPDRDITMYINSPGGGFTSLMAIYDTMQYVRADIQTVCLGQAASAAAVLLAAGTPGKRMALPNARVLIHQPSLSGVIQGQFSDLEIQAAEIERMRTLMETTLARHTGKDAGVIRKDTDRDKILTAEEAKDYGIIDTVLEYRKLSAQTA
UniProt P9WFT3, whole entry: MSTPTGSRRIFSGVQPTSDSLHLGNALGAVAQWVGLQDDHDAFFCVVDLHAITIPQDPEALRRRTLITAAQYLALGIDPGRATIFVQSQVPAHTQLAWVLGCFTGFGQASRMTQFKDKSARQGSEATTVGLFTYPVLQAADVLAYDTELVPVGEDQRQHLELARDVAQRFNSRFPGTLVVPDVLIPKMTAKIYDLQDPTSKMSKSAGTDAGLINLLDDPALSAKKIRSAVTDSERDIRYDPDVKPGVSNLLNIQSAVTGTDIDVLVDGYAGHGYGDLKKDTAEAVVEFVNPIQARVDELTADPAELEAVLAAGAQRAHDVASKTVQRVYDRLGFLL
UniProt I6X8D2, whole entry: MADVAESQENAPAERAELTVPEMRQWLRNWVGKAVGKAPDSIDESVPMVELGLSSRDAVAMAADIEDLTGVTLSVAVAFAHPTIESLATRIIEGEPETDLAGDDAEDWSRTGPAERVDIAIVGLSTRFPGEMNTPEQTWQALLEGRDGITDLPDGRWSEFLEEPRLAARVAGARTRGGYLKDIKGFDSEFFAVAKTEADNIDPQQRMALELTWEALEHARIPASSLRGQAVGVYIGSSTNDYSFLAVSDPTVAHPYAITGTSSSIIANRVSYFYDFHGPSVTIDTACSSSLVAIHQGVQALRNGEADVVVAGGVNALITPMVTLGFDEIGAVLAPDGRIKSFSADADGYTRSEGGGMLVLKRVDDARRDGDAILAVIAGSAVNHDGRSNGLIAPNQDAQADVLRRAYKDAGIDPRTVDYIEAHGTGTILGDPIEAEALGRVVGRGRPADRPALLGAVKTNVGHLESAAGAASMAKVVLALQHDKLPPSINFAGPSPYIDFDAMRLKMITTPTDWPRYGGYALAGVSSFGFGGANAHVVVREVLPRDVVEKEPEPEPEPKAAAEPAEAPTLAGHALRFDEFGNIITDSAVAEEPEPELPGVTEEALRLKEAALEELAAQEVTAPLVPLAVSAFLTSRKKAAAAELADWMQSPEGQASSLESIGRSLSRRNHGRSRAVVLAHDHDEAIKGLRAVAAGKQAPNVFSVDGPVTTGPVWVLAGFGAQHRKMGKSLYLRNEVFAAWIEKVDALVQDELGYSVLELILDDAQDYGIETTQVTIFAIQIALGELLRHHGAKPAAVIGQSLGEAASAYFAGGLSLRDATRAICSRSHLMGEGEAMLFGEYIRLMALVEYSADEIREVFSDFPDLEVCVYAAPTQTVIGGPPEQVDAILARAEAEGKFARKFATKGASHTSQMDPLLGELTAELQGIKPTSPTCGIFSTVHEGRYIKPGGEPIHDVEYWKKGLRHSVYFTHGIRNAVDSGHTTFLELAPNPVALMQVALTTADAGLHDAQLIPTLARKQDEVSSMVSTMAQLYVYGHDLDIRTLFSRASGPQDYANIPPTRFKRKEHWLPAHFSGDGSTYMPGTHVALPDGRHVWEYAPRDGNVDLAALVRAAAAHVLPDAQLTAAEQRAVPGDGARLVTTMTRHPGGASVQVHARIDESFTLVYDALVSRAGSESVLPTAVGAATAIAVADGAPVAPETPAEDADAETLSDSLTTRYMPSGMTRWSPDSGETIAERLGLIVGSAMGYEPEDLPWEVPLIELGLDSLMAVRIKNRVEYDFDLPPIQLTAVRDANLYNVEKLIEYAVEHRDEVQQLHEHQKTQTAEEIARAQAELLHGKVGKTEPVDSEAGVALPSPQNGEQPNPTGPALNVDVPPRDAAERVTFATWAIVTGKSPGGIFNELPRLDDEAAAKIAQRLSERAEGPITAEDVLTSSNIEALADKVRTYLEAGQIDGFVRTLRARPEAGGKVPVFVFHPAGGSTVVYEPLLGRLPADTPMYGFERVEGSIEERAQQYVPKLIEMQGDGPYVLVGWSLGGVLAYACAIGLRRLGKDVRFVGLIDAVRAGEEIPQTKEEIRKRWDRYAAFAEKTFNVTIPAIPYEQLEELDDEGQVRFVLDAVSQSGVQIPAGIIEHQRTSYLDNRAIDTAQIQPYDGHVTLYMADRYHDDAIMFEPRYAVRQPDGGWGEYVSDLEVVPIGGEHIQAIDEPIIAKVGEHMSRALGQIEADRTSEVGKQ
UniProt Q8IDJ8, 1-583: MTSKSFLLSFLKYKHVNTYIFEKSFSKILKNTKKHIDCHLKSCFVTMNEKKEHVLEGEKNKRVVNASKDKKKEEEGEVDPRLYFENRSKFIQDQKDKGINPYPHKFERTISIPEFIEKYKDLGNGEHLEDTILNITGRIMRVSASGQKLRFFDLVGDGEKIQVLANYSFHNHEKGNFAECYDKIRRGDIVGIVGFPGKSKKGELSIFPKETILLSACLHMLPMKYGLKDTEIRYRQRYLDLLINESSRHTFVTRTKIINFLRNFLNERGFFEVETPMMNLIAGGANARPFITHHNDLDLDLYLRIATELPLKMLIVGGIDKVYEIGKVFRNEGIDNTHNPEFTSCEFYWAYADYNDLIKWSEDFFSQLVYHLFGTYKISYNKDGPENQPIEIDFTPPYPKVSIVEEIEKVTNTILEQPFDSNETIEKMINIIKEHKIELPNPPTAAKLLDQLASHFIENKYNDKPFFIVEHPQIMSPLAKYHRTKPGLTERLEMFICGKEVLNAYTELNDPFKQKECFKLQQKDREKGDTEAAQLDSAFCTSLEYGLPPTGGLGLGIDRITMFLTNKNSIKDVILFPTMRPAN

The values are deposited in ChEMBL (CHEMBL3988442, “University of Dundee, Small-Polar-MMV Screening Library” (2021)).

ClpP1P2: 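ClpP1P2, Mycobacterium tuberculosis (UniProt P9WPC5 and UniProt P9WPC3). Protease assay of ClpP1P2, read by the AMC dye that it sets free. Tested at 50 µM. Direction is inferred from only a few compounds that gave an IC50; most scored high, so higher reads as stronger inhibition. Most other retested compounds had strongly negative values. Of about 69,000 compounds tested this way, about 10 (0.015%) reached 50% or more in at least one test.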
MtTrpRS: 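Tryptophan-tRNA ligase, Mycobacterium tuberculosis (UniProt P9WFT3). Enzyme assay of tryptophanyl-tRNA synthetase; the read-out is not stated. Tested at 10 µM. Direction is not recorded; retested compounds ran higher, which suggests that high means inhibition. Of about 65,000 compounds tested this way, about 64 (0.098%) reached 50% or more in at least one test.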
Pks13 thioesterase: 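Enzyme assay of the thioesterase domain of polyketide synthase 13; the read-out is not stated. Target: Polyketide synthase Pks13, Mycobacterium tuberculosis (UniProt I6X8D2). Tested at 30 µM. The record gives no direction; the compounds picked for IC50 retests had high values, so higher reads as stronger inhibition. Of about 67,000 compounds tested this way, about 300 (0.46%) reached 50% or more in at least one test.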
PfKRS1: 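Lysine-tRNA ligase, Plasmodium falciparum 3D7 (UniProt Q8IDJ8). Enzyme assay of the cytosolic lysyl-tRNA synthetase in 384-well plates, read by luminescence. Tested at 30 µM. Direction is inferred from only a few compounds that gave an IC50; most scored high, so higher reads as stronger inhibition. About 69,000 compounds were tested under these conditions; 0.071% (about 49) showed 50% or more at least once.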

Results are given as percent effect. How 0% and 100% were set is not recorded. Most values in the screen are low, and negative values occur. The compounds are a random part of those screened. A dash means the value is not listed here; it may have been measured.

structure,ClpP1P2,MtTrpRS,Pks13 thioesterase,PfKRS1
CCC(C)(NCc1nnc(C(C)(C)C)o1)c1nccs1 (stereo not shown),-1.541%,-1.421%,-24.59%,4.691%
CC(C)OCCN1CCC(C(=O)c2cc(F)ccc2F)CC1,7.68%,2.893%,-16.26%,-0.7645%
CN(C)Cc1cnn(-c2ccccc2C(=O)NCCC2CCCN2C)c1 (stereo not shown),-15.67%,2.023%,-2.369%,1.278%
CO[C@H]1CN(Cc2ccc(F)c(F)c2)C[C@@]12CCCO2,-11.12%,-,2.856%,2.887%
O=C(NCc1nncn1C1CC1)Nc1ccc(OC2CCC2)c(F)c1,2.821%,-2.999%,-27.12%,1.393%
Cn1ccc(C(=O)N2CCOC(c3ccc(C(N)=O)cn3)C2)n1 (stereo not shown),7.322%,-,-1.973%,2.358%
OC(CN1CCN(Cc2cccnc2)CC1)c1cccs1 (stereo not shown),-0.2092%,-1.292%,-18.82%,8.16%
Cc1noc2nc(C3CCN(CC4CCCCC4)CC3)cc(C(F)F)c12,5.133%,-,-7.968%,4.324%
CS(=O)(=O)N1CCN(Cc2cccs2)CC(C(N)=O)C1 (stereo not shown),-6.364%,-,-11.87%,1.101%
O=C(c1ccco1)N1CCC2(CCC(=O)N2Cc2ccccc2)CC1,-2.288%,-2.326%,-18.99%,2.253%
CC(C)N1CC(C(=O)NC(C)(C)CNC(=O)OC(C)(C)C)CC1=O (stereo not shown),-0.1901%,-4.31%,-29.47%,4.105%
CN(C)Cc1cnc2n1CCN(C(=O)NC1CCCC1)CC2,-5.947%,-4.639%,-2.82%,-0.3506%
NC(=O)N1CC[C@@H]2O[C@@H](COCC(=O)N3CCCC3)CC[C@@H]21,-5.945%,-0.7508%,6.544%,-2.963%
CCOC(=O)[C@@H]1CN2CCNC[C@@H]2[C@H]1c1ccccc1,-5.303%,-,2.755%,3.325%
Cn1ncc(N2CCOC(CCNC(=O)N3CCCCC3)C2)cc1=O (stereo not shown),16.28%,1.161%,-,3.238%
c1cnc(N2CCC(c3cc4cccnc4[nH]3)CC2)nc1,-8.441%,2.98%,-5.124%,-2.097%
CN(C)CCOCC1CN(C(=O)c2ccccn2)Cc2ccnn2C1 (stereo not shown),3.477%,11.72%,9.767%,5.824%
CO[C@H]1CN(C(=O)c2nc(-c3ccccc3)[nH]c2C)CC[C@H]1N,-6.36%,22.24%,-46.94%,-1.025%
O=C(CCn1cncn1)N1C[C@H]2CC[C@@H]1CN(Cc1cccnc1)C2,11.26%,-6.069%,-,5.973%
Brc1cnc(NCc2ccccc2N2CCOCC2)nc1,-7.417%,3.535%,4.766%,4.413%
CC(C(=O)N(C)Cc1ccc(Br)o1)n1cncn1 (stereo not shown),9.475%,-0.2601%,-11.27%,2.832%
COc1ncnc2c1CCN(C(=O)NCc1cccnc1)CC2,-15.91%,1.106%,1.482%,2.401%
CNC(=O)c1[nH]nc2ccc(I)cc12,7.082%,-5.635%,-38.07%,4.49%
CC(NC(=O)CSCC#N)c1cccc(Cl)c1 (stereo not shown),4.522%,-1.002%,-4.717%,1.111%
COCCOc1ccc(CNc2nc3ccccc3nc2N)cn1,-8.96%,-0.7342%,25.63%,-0.3242%
COc1ccccc1-n1cc(CN2CCN(C)[C@@H]3CS(=O)(=O)C[C@@H]32)cn1,4.871%,0.07764%,-20.35%,3.244%
Cc1ccccc1CN1CCN(C(C)c2nc(C3CC3)no2)CC1 (stereo not shown),-17.35%,8.234%,1.048%,-1.568%
CN(Cc1ccsc1)C(=O)c1ccc(F)c(NS(C)(=O)=O)c1,5.669%,1.342%,-36.22%,1.772%
COCc1nccc(C2CCCN(Cc3ccc(SC)cc3)C2)n1 (stereo not shown),0.4663%,-3.423%,-5.619%,3.492%
O=C(c1ccccn1)N1C[C@@H]2CC[C@H](C1)N(C(=O)Cc1cccs1)C2,-6.991%,1.377%,3.267%,0.7967%
O=C(CCc1cc2n(n1)CCCNC2)N1CCSCC1,1.827%,0%,-1.628%,-4.585%
Cn1cc(CN2C[C@@H]3COC[C@]3(COCC3CC3)C2)cn1,8.275%,-,-21.54%,3.825%
Cc1nnc(C[C@@H]2COC[C@H]3CN(C(=O)C4=CCCC4)C[C@@H]23)o1,-3.583%,-4.167%,-34.62%,1.531%
Cc1cccc(C(=O)N2CCn3cnc(COCC4CC4)c3C2)n1,3.22%,-1.036%,-20.59%,6.966%
COc1ccc2c(c1)CC(C(=O)N(C)CCCc1cnn(C)c1)CO2 (stereo not shown),-5.464%,-4.326%,-12.88%,0.1342%
CC(C)n1cc(CN2CCCN(C(=O)CN3CCCC3=O)CC2)cn1,16.13%,21.27%,-8.456%,-2.145%
Cc1ccc(-n2ncc(C(=O)NC3CCCCC3)c2N)cc1,4.546%,-5.68%,-24.42%,14.65%
CCNC(=O)NC1CCC(Oc2ccccc2C#N)CC1 (stereo not shown),-5.662%,3.862%,-0.7602%,-5.105%
CN(Cc1ccncc1)C1COC2(CCN(Cc3ccco3)CC2)C1 (stereo not shown),-2.694%,-0.1744%,-6.227%,2.601%
COC(=O)CNC(=O)c1nc(-c2ccccc2OC)c2cnccn12,-450.2%,-3.198%,118.3%,-1.891%
Cc1ccccc1C(NC(=O)NCC1(CO)CC1)C1CC1 (stereo not shown),0.3618%,-4.368%,0.3623%,2.28%
CCN1CCN(C(=O)c2cccn2Cc2ccccc2)CC1,-17.24%,-3.504%,-0.9382%,-0.239%
COc1ccc(-c2ccc(C(=O)O)c(F)c2)c(F)c1,0.8483%,-14.57%,-22.93%,1.583%

3 of the entries, repeated:

{"structure": "O=C(CCn1cncn1)N1C[C@H]2CC[C@@H]1CN(Cc1cccnc1)C2", "ClpP1P2": 11.26, "MtTrpRS": -6.069, "PfKRS1": 5.973}
{"structure": "CN(C)CCOCC1CN(C(=O)c2ccccn2)Cc2ccnn2C1", "stereo": "stereo not shown", "ClpP1P2": 3.477, "MtTrpRS": 11.72, "Pks13 thioesterase": 9.767, "PfKRS1": 5.824}
{"structure": "CN(C)Cc1cnc2n1CCN(C(=O)NC1CCCC1)CC2", "ClpP1P2": -5.947, "MtTrpRS": -4.639, "Pks13 thioesterase": -2.82, "PfKRS1": -0.3506}